The record followed here is US9482923B2, “Colored composition and image display structure” (FUJIFILM CORPORATION, priority 2011, dated 2016).

A short description of the series: Color of colored composition, visually evaluated. The format is physicochemical. As to conditions: 3% by mass solution in n-hexane, visual. As to the method: Each of the dyes shown above as Exemplary Compounds D-2, D-11, D-13, D-14, D-25, D-37, E-2, E-3, and E-7 was dissolved in a solvent (n-hexane) to make a 3% by mass solution, thereby preparing a colored composition (ink). Each of the colored compositions (inks) obtained was evaluated with respect to its color, absorption maximum wavelength (λmax), absorbance (abs), absorption coefficient (∈), viscosity, and relative dielectric constant, and solubility (% by mass) of each of the dyes in a solvent.
1. Color of Colored Composition
The color of the colored composition was visually evaluated.
Consider `CCCCCCCCCCCCN(CCCCCCCCCCCC)c1ccc(C=C2C(=O)ON=C2c2ccccc2)cc1` [D-2], for which the “Color of Solution” value was “Yellow”.

For the compound `CCCCOC(=O)CN(CC(=O)OCCCC)c1ccc(C=C2C(=O)ON=C2C(C)(C)C)cc1` [D-11], the “Color of Solution” value is listed as “Yellow”.

For `CCCCCCCCCCCCn1cc(C=C2C(=O)ON=C2c2ccccc2)c2ccccc21` [D-25], the “Color of Solution” value was “Yellow”.

As for `CCCCCCN(CCCCCC)c1ccc(C=C2C(=O)ON=C2C(C)(C)C)c(C)c1` [D-37], the “Color of Solution” value was “Yellow”.

As for `Cc1cc(C=C2C(=O)ON=C2C(C)(C)C)c(C)n1-c1ccc(C(=O)O)cc1` [D-101, reference compound], the “Color of Solution” value is “Not colored”.

For `COc1ccc(C2=NOC(=O)C2=Cc2ccc(N(CC(=O)O)CC(=O)O)cc2)cc1` [D-102, reference compound], the “Color of Solution” value is given as “Not colored”.

Turning to `CCCCCCCCCCCCN(CCCCCCCCCCCC)c1ccc(C=CC=C2C(=O)ON=C2C(C)(C)C)c(C)c1` [E-2], the “Color of Solution” value was “Red-orange”.

As for `CCCCCCCCN(CCCCCCCC)c1ccc(C=CC=C2C(=O)ON=C2C(C)(C)C)c(OC)c1` [E-3], the “Color of Solution” value is recorded as “Red”.

For `CCCCCCCCCCCCN(CCCCCCCCCCCC)c1ccc(C=CC=CC=C2C(=O)ON=C2C)c(C)c1` [E-7], the “Color of Solution” value is recorded as “Red”.
